# In article PMC4351601:
# Results are given in words; binding and its absence hold for the method and conditions named.
# Key:
# [1] = molecular target: fragaceatoxin C (FraC), wild type (UniProt B9W5G6); assay: crystal structure; FraC co-crystallised with the water-soluble lipid DHPC (30 or 50 mM); three crystal forms, 1.6 to 2.3 Å; both purified
# [2] = molecular target: fragaceatoxin C (FraC), wild type (UniProt B9W5G6); assay: crystal structure; water-soluble FraC without lipids or detergents; two crystal forms, 1.70 and 2.10 Å; both purified
# [3] = molecular target: fragaceatoxin C (FraC), wild type (UniProt B9W5G6); assay: condition: only after vesicles of SM alone or of DOPC alone; SEC; as a3 but with LUVs of SM alone or of DOPC alone; Superdex 200 10/300 GL in SEC buffer with 3 mM LDAO; both purified
# [4] = molecular target: fragaceatoxin C (FraC), wild type (UniProt B9W5G6); assay: SEC-MALS; elution peak of FraC incubated with DOPC vesicles; WTC-030S5 column, MALS/RI/UV, detergent LDAO; both purified
# FraC mutein V60E/W149A = FraC mutein V60E/W149A (UniProt B9W5G6); assay: SEC; FraC (50 µM) incubated with DOPC/SM (1:1) LUVs (lipid/protein 200:1) 30 min at room temperature, solubilised with 1% Triton X-100, Resource S in 3 mM LDAO, then Superdex 200 10/300 GL in 50 mM Tris, 200 mM NaCl, pH 7.4, 3 mM LDAO; both purified
# [5] = molecular target: FraC mutein V8C/K69C, oxidised (engineered disulfide bond between the N-terminal and beta-core regions) (UniProt B9W5G6); assay: as above
substance,measurement,setting,value
"fragaceatoxin C (FraC), wild type (from UniProt B9W5G6 1-179)",binding,[1],no binding (condition: with DHPC as the only lipid)
same,binding,[2],no binding (condition: without lipids or detergents)
same,binding,[3],no binding
same,binding,[4],no binding (condition: after vesicles of DOPC alone)
FraC mutein V60E/W149A (from UniProt B9W5G6 1-179),binding,FraC mutein V60E/W149A,no binding
"FraC mutein V8C/K69C, oxidised (engineered disulfide bond between the N-terminal and beta-core regions) (from UniProt B9W5G6 1-179)",binding,[5],no binding
